Measured values taken from patent US20260274944A1.

Columns and labels:
mRAGE-ΔV (mouse) = test: immunocytochemistry, 250 nM on transfected CHO cells, anti-human Fc detection
mRAGE-ΔV-C1 (mouse) = test: as above

B1: VHH 5-Fc (Fc fusion, not shown: a dimerising Fc or GST)
chain: EVQLVESGGGLVQPGGSLRLSCAASGTIFSLNPMGWYRQAPGKQLELVALISDSGTANYADFVRGRFTISRDTTKKTLYLQMNSLEPEDTAVYYCRSTFAAGNFYWGQGTQVTVSS
- binding (mRAGE-ΔV (mouse)): binds
- binding (mRAGE-ΔV-C1 (mouse)): binds

B2: VHH 2-Fc (Fc fusion, not shown: a dimerising Fc or GST)
chain: QVQLVQSGGGLVQAGGSLRLSCAASGSVSSIYAMGWYRQAPGKQREWVTTITGRGITDYAASVKGRFTISRDTAKNAVYLQMNNLKPEDTARYYCKIDRRGYAPYWGQGTQVTVSS
- binding (mRAGE-ΔV (mouse)): binds
- binding (mRAGE-ΔV-C1 (mouse)): binds

No constants are given. Whether binding was seen depends on the method and setting. Binding can be weak; no strength is given. Sequences can lack the tags named with a protein.
